The list shows a part of the results. Shown are side measurements of this screen, not its main read-out; they come without a call. Compounds called inactive in the main read-out are mostly missing here. Words in brackets tell the shape of the fitted curve; partial curves, single points and poor fits give uncertain potencies.
Assay: qHTS Assay for Modulators of Lamin A Splicing
Settings: HeLa LMNA splicing GFP/RFP minigene ratio, 48 h
Outline: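 Read-out is the ratio of GFP to DsRed2 object intensity, acquired by 488 nm laser-scanning cytometry on HeLa lamin A-EGFP minigene reporter cells. Compound incubation 48 hrs at 37 °C in Opti-MEM with 2% FBS; DMSO 0.5% final.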

[1] = measured here: GFP splicing reporter channel
[2] = measured here: RFP viability control channel

Row | Compound | AC50 [1] | AC50 [2]
1 | Fc1ccc(-c2nnc(CN3CCC(c4nc5ccccc5s4)CC3)o2)cc1 | 17.8 µM [rising, partial curve, poor fit] | 8.91 µM [rising, partial curve]
2 | Cc1ccc(CSCC(=O)N/N=C/c2ccc(OCC(=O)Nc3ccc(C)cc3)cc2)cc1 | – | 35.5 µM [falling, single point]
3 | OC[C@@H](O)[C@@H](O[C@H]1O[C@H](CO)[C@@H](O)[C@H](O)[C@H]1O)[C@H](O)[C@@H](O)CO | 0.141 µM [rising, full curve, poor fit] | –
4 | CSc1nccc(N2CCN(c3ccc(F)cc3)CC2)n1 | 10 µM [rising, partial curve] | 22.4 µM [rising, partial curve]
5 | CC(NC(=O)CN1CCN(Cc2ccc(Cl)cc2)C1=O)c1ccc2c(c1)OCCO2 (stereo not given) | – | 14.1 µM [rising, single point]
6 | O=C(O)CCC(=O)OCC1CCCCC1 | – | 3.55 µM [falling, partial curve]
7 | Cc1cc(C)c(NC(=O)c2oc3ccccc3c2COc2ccccc2)c(C)c1 | – | 15.8 µM [rising, partial curve]
8 | O=C(NNS(=O)(=O)c1ccccc1F)c1sccc1-n1cccc1 | – | 3.98 µM [falling, partial curve, poor fit]
9 | COC(=O)N/N=C/c1cc([N+](=O)[O-])cc(Br)c1O | – | 14.1 µM [rising, single point]
10 | Cc1ccc2cc(C(c3nnnn3C(C)(C)C)N3CCCCCC3)c(=O)[nH]c2c1 (stereo not given) | 17.8 µM [rising, partial curve, poor fit] | –
11 | COc1ccccc1NC1=C(Cl)C(=O)N(C2CCCCC2)C1=O | 35.5 µM [rising, single point] | 35.5 µM [rising, single point]
12 | O=C(COc1ccc(/C=N/NC(=O)CSCc2ccc([N+](=O)[O-])cc2)cc1)NCc1ccco1 | – | 20 µM [rising, single point]
13 | CCSC1=NC2(CCN(C(=O)NC3CCCCC3)CC2)N=C1c1ccc(C)c(C)c1 | – | 35.5 µM [rising, single point]
14 | CC(=O)Oc1ccc(C(=O)Nc2cccc(C(=O)c3cccc(NC(=O)c4ccc(OC(C)=O)cc4)c3)c2)cc1 | – | 10 µM [rising, partial curve, poor fit]
15 | Cc1ccc(C(=O)CCC2CCCC2=O)cc1 (stereo not given) | – | 3.16 µM [rising, full curve, poor fit]
16 | COc1ccc(/C=C2\SC(=N)N(c3nccs3)C2=O)cc1OC | – | 2.82 µM [rising, partial curve]
17 | O=C(COC(=O)C1(c2ccc(F)cc2)CCCC1)N1CCc2ccccc21 | 14.1 µM [rising, single point] | 25.1 µM [rising, single point]
18 | CN(C)c1ncnc2ccc(-c3ccccc3C(F)(F)F)cc12 | 8.91 µM [falling, partial curve] | –

Row | Compound | AC50 [1] | AC50 [2]
19 | COc1ccc(CNC(=O)CN2CCN(C(c3ccccc3)c3ccccc3)CC2)cc1 | 0.0631 µM [falling, full curve, poor fit] | –
20 | CCOc1ccc2c(c1)C(N(CCN1CCOCC1)C(=S)Nc1ccccc1OC)CC(C)(C)O2 (stereo not given) | 0.708 µM [rising, partial curve] | –
21 | Cc1cccc2[nH]c(CN(C)Cc3nc(CC4CC4)no3)nc12 | – | 0.00447 µM [falling, full curve, poor fit]
22 | COc1ccc(-c2nn(-c3ccccc3)cc2/C=C\C(=O)N2CCOCC2)cc1[N+](=O)[O-] | – | 0.282 µM [falling, full curve, poor fit]
23 | COc1cccc(Cn2c(=O)c(-c3cccs3)nc3cnc(OCc4ccccc4)nc32)c1 | – | 17.8 µM [falling, partial curve]
24 | Cc1ccc(Nc2cc(-c3ccccc3)nc(C)n2)cc1 | 0.562 µM [falling, full curve] | 0.316 µM [falling, full curve, poor fit]
25 | Cc1[nH][nH]c(=O)c1C(c1c(C)[nH][nH]c1=O)c1cn(Cc2ccccc2Cl)c2ccccc12 | 7.08 µM [rising, partial curve] | 31.6 µM [rising, single point]
26 | O=C(CCCN1C(=O)/C(=C\c2cccc(Br)c2)SC1=S)Nc1cccnc1 | 4.47 µM [falling, full curve] | 7.94 µM [falling, partial curve]
27 | NC(N)=N/N=C/c1ccc(OCc2ccccc2Cl)cc1 | 28.2 µM [falling, single point] | –
28 | CC(C)c1nn2c(=O)cc(COC(=O)c3ccc(NC(=O)c4ccccc4Cl)cc3)nc2s1 | – | 3.16 µM [rising, partial curve, poor fit]
29 | S=C(Nc1ccc(Br)cc1)NC1CCCC1 | 2 µM [rising, single point] | –
30 | CCOC(=O)N1CCC(N(CCOC)C(=O)Nc2ccc(Cl)c(Cl)c2)CC1 | – | 12.6 µM [rising, partial curve]
31 | CCOC(=O)C1=C(C)NC(=S)NC1C (stereo not given) | 0.316 µM [falling, full curve, poor fit] | 0.501 µM [falling, partial curve, poor fit]
32 | Cn1c(C(=O)OC(C(=O)NC(C)(C)C)c2cccnc2)cc2sccc21 (stereo not given) | 0.501 µM [falling, full curve] | –
33 | c1ccc2c(-c3c[nH]c4ccccc34)c3ccccc3nc2c1 | 35.5 µM [falling, single point] | 35.5 µM [falling, single point]
34 | O=C(NC(=S)Nc1ccc(F)c([N+](=O)[O-])c1)c1ccccc1F | – | 0.708 µM [rising, partial curve]
35 | C/C(CCN1CCCCc2nc(C)c(C)cc21)=N\O[C@@H](C)c1cn([C@H](CO)Cc2ccccc2)nn1 | – | 5.01 µM [rising, full curve, poor fit]
36 | COc1ccccc1CNc1nc(-c2ccco2)nn1S(=O)(=O)c1ccc(C)cc1 | 6.31 µM [rising, single point] | –

Single records, as listed above.
Cc1ccc2cc(C(c3nnnn3C(C)(C)C)N3CCCCCC3)c(=O)[nH]c2c1 (stereo not given) reads AC50 [1]: 17.8 µM [rising, partial curve, poor fit]
COc1ccc(CNC(=O)CN2CCN(C(c3ccccc3)c3ccccc3)CC2)cc1 reads AC50 [1]: 0.0631 µM [falling, full curve, poor fit]

Source: PubChem BioAssay AID1487 (National Center for Advancing Translational Sciences (NCATS), 2009)
